No constants are given. Whether binding was seen depends on the method and setting. Some binding calls cover weakened binding; strength is not graded here. Sequences can lack the tags named with a protein.
Target: T1, LDAF1-FLAG (human) (UniProt Q96B96)
T1 sequence: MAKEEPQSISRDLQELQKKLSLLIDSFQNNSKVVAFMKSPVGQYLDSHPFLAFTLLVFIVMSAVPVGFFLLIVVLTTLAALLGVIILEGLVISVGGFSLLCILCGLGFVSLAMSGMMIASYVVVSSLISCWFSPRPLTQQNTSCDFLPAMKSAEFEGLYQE
Assay: co-purification (anti-FLAG affinity, then SEC); LDAF1-FLAG and seipin (1–310) co-expressed in Expi293F; cells treated with DGAT1 and DGAT2 inhibitors and Triacsin C; membranes solubilised in 1% LMNG; anti-FLAG M2 resin, eluted with 3xFLAG peptide; Superose 6; 4°C; seipin then seen by cryo-EM

Chains of the proteins cited; added tags and fusions are not shown. Residues count along the entry.
UniProt Q96G97, residues 1-310: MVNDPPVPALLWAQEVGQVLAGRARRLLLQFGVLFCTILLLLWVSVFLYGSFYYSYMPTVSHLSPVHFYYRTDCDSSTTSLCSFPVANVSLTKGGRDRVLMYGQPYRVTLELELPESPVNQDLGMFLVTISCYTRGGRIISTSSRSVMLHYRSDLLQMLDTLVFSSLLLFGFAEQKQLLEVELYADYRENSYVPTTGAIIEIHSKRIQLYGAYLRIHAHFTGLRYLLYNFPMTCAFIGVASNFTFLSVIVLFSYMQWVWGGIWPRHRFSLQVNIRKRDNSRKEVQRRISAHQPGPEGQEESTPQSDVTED

binding: binds
Substance: seipin (1–310) (from UniProt Q96G97 1-310) (domain or fragment)

Source: publication PMC9122495, “Seipin transmembrane segments critically function in triglyceride nucleation and lipid droplet budding from the membrane” (eLife, 2022)
